For 1 substance, binding results are on record in publication PMC10529771.

By UniProt entry, the sequences of proteins in these tests, tags left out. Residues count along the entry.
UniProt P48721, residues 47-679: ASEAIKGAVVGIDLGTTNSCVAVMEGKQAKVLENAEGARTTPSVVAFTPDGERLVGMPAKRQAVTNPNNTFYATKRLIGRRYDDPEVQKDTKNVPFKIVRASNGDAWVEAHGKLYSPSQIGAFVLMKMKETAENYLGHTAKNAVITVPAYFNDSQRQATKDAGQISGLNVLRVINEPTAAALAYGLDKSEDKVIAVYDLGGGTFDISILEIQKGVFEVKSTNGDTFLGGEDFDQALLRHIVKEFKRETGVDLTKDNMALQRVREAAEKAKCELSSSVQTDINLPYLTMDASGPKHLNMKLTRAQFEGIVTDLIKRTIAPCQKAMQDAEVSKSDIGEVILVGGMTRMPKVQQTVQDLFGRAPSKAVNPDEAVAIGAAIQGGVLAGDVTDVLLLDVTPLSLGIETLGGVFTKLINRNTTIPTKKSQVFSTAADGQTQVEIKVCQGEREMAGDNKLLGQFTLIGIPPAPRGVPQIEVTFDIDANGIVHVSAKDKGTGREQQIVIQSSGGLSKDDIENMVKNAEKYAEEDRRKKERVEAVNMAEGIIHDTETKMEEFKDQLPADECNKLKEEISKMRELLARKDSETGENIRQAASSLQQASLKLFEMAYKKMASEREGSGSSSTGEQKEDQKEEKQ
UniProt P29117, residues 30-206: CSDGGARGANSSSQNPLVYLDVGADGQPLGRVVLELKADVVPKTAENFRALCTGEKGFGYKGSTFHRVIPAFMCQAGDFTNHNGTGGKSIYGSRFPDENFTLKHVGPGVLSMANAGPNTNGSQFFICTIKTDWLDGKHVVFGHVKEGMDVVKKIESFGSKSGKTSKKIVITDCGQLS
UniProt O35433: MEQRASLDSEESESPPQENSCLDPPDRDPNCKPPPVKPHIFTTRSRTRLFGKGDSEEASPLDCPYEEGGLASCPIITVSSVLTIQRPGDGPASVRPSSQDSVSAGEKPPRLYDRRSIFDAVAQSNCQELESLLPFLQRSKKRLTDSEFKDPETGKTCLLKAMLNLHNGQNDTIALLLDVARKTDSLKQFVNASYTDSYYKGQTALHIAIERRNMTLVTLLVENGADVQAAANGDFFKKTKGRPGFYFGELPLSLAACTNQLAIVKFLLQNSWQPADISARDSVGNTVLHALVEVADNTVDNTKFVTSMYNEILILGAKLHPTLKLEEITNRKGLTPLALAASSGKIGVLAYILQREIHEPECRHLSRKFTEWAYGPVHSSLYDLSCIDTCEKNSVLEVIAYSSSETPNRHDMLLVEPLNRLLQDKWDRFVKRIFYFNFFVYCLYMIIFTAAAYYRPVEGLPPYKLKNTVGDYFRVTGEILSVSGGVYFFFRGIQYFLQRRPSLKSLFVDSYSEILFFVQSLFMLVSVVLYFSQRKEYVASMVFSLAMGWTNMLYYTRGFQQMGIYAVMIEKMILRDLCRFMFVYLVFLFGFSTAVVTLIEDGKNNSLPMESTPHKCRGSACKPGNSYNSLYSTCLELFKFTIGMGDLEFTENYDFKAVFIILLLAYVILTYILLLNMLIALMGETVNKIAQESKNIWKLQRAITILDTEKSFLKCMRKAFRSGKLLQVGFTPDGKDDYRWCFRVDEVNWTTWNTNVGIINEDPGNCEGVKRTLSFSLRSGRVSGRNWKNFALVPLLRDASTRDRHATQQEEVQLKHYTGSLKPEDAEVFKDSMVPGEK

What all share (experiment): proximity ligation; Duolink (anti-rabbit plus, anti-mouse minus) on SV40-transformed H9c2 cells fixed with 4% paraformaldehyde and permeabilised with 0.01% Triton X-100; endogenous proteins detected by primary antibodies; signal if the proteins are at a distance <40 nm; confocal imaging
Assay [1] deals with T1, genes associated with retinoid-IFN-induced mortality-19 (GRIM19) (rat (endogenous in SV40-transformed H9c2)) (UniProt F1LZC5).
T1 sequence: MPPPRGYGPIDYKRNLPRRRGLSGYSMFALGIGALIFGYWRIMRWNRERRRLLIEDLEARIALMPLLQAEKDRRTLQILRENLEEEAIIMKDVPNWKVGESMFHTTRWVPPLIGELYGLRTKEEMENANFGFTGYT

The target in assay [2] is glucose-regulated protein 75 (GRP75) (rat (endogenous in SV40-transformed H9c2)) (UniProt P48721).
The target of assay [3] is cyclophilin F (CypF) (rat (endogenous in SV40-transformed H9c2)) (UniProt P29117).

Results are given in words; binding and its absence hold for the method and conditions named. Binding seen in cells or lysates may run through a third protein. Some entries that bind do so weakly or less than the wild type.

As for “transient receptor potential vanilloid 1 (TRPV1) (from UniProt O35433 1-838)”, the binding entry is on record as “no binding” in assay [1], “binds” in assay [2] and “no binding” in assay [3].
